Measurements published in patent publication US20040002080A1, “Primers for use in detecting beta-lactamases” (priority 2001, published 2004).
For at least one compound, name, drawing or mass did not settle the structure.

Tested on: S. enterica serotype typhimurium isolate
Assay: Antibiotic susceptibility testing (microdilution MIC, VITEK, NCCLS disk diffusion)
Assay type: cell-based, Salmonella enterica serotype Typhimurium

SMILES	susceptibility category (susceptible / intermediate / resistant)
C[C@@H](O)[C@H]1C(=O)N2C(C(=O)O)=C(SCCN=CN)C[C@H]12 [Imipenem]	susceptible
C[C@H]1COc2c(N3CCN(C)CC3)c(F)cc3c(=O)c(C(=O)O)cn1c23 [Levofloxacin]	susceptible
